Data published in the supplement of paper PMC4604168 (melanoma cell lines).
The list shows a part of the results. Repeats are few or missing, and single values can be far off.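 Cells were imaged in 1,536-well plates, and nuclei stained with an antibody against cleaved PARP were counted against all DNA-stained nuclei to give the apoptosis fraction. Screening doses were chosen to leave most cells alive, and resting and induced cleaved-PARP levels differ strongly between cell lines.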

Tests used:
Assay in all cases: cleaved PARP positive nuclei fraction relative to DMSO control; melanoma cells; higher = more apoptosis
Details in all cases: library dose: low library concentration; 72 h
501Mel = tested on: 501Mel
A101D = tested on: A101D
A2058 = tested on: A2058
A375 = tested on: A375
C32 = tested on: C32
CBRC008 = tested on: CBRC008 (line from a melanoma biopsy)
CBRC014 = tested on: CBRC014 (line from a melanoma biopsy)
CBRC016 = tested on: CBRC016 (line from a melanoma biopsy)
CBRC017 = tested on: CBRC017 (line from a melanoma biopsy)
CBRC034 = tested on: CBRC034 (line from a melanoma biopsy)
COLO792 = tested on: COLO792
COLO800 = tested on: COLO800
COLO829 = tested on: COLO829
G361 = tested on: G361
IPC-298 = tested on: IPC-298
IST-MEL1 = tested on: IST-MEL1
LB2518-MEL = tested on: LB2518-MEL
LOXIMVI = tested on: LOXIMVI
MEL-HO = tested on: MEL-HO

Row | SMILES | cleaved PARP positive nuclei fraction (501Mel) | cleaved PARP positive nuclei fraction (A101D) | cleaved PARP positive nuclei fraction (A2058) | cleaved PARP positive nuclei fraction (A375) | cleaved PARP positive nuclei fraction (C32) | cleaved PARP positive nuclei fraction (CBRC008) | cleaved PARP positive nuclei fraction (CBRC014) | cleaved PARP positive nuclei fraction (CBRC016) | cleaved PARP positive nuclei fraction (CBRC017) | cleaved PARP positive nuclei fraction (CBRC034) | cleaved PARP positive nuclei fraction (COLO792) | cleaved PARP positive nuclei fraction (COLO800) | cleaved PARP positive nuclei fraction (COLO829) | cleaved PARP positive nuclei fraction (G361) | cleaved PARP positive nuclei fraction (IPC-298) | cleaved PARP positive nuclei fraction (IST-MEL1) | cleaved PARP positive nuclei fraction (LB2518-MEL) | cleaved PARP positive nuclei fraction (LOXIMVI) | cleaved PARP positive nuclei fraction (MEL-HO)
1 | Cn1sc(=O)n(Cc2ccccc2)c1=O + C[C@]1(c2nc3c(C(N)=O)cccc3[nH]2)CCCN1 [Veliparib] (first compound 0.4 µM, partner dose 1.4 µM) | 35.5% | 148% | 192% | 104% | 65% | 47% | 97.2% | 23.2% | 68.2% | 26.4% | 97.5% | 136% | 95.5% | 117% | 28.5% | 69.1% | 89.8% | 65.3% | 63.3%
2 | Cn1cnc2c(F)c(Nc3ccc(Br)cc3Cl)c(C(=O)NOCCO)cc21 [selumetinib] + COc1ccc(C2=N[C@@H](c3ccc(Cl)cc3)[C@@H](c3ccc(Cl)cc3)N2C(=O)N2CCNC(=O)C2)c(OC(C)C)c1 [Nutlin-3] (first compound 0.015 µM, partner dose 0.1 µM) | 636% | 221% | 203% | 196% | 76.3% | 85.6% | 84.3% | 101% | 118% | 224% | 98% | 103% | 107% | 122% | 135% | 97.4% | 356% | 181% | 91.4%
3 | CC1(C)CCC(c2ccc(Cl)cc2)=C(CN2CCN(c3ccc(C(=O)NS(=O)(=O)c4ccc(N[C@H](CCN5CCOCC5)CSc5ccccc5)c(S(=O)(=O)C(F)(F)F)c4)cc3)CC2)C1 + CNC(=O)c1cc(Oc2ccc(NC(=O)Nc3ccc(Cl)c(C(F)(F)F)c3)cc2)ccn1 [sorafenib] (first compound 0.4 µM, partner dose 0.4 µM) | 72.8% | 93.7% | 151% | 195% | 1830% | 365% | 691% | 336% | 357% | 158% | 180% | 23.7% | 71.9% | 164% | 352% | 58.6% | 119% | 108% | 87.8%
4 | CC1(C)CCC(c2ccc(Cl)cc2)=C(CN2CCN(c3ccc(C(=O)NS(=O)(=O)c4ccc(N[C@H](CCN5CCOCC5)CSc5ccccc5)c(S(=O)(=O)C(F)(F)F)c4)cc3)CC2)C1 + O=C(O)c1ccc2c(c1)nc(Nc1cccc(Cl)c1)c1ccncc12 [CX4945] (first compound 0.4 µM, partner dose 0.4 µM) | 162% | 466% | 360% | 281% | 190% | 339% | 1600% | 1500% | 476% | 547% | 381% | 58.1% | 221% | 283% | 62.5% | 155% | 423% | 322% | 241%
5 | CC(=O)O[C@@]12CO[C@@H]1C[C@H](O)[C@@]1(C)C(=O)[C@H](O)C3=C(C)[C@@H](OC(=O)[C@H](O)[C@@H](NC(=O)OC(C)(C)C)c4ccccc4)C[C@@](O)([C@@H](OC(=O)c4ccccc4)[C@H]21)C3(C)C [Docetaxel] + CC(=O)c1c(C)c2cnc(Nc3ccc(N4CCNCC4)cn3)nc2n(C2CCCC2)c1=O [palbociclib] (first compound 0.0001 µM, partner dose 0.04 µM) | 187% | 126% | 2130% | 1060% | 201% | 257% | 161% | 119% | 416% | 143% | 241% | 275% | 166% | 219% | 437% | 284% | 484% | 86.4% | 182%
6 | CCCCCCCCc1ccc(CCC(N)(CO)CO)cc1 [fingolimod] + CCCS(=O)(=O)Nc1ccc(F)c(C(=O)c2c[nH]c3ncc(Cl)cc23)c1F [PLX4720] (first compound 2 µM, partner dose 0.08 µM) | 188% | 137% | 24.1% | 439% | 91.7% | 73.9% | 114% | 61.5% | 113% | 46.8% | 65.8% | 100% | 86.1% | 241% | 96.1% | 31.6% | 193% | 110% | 93.9%
7 | NC(=O)c1ccc(N(C(N)=O)c2c(F)cccc2F)nc1-c1ccc(F)cc1F + CC(C)C[C@H](NC(=O)[C@H](Cc1ccccc1)NC(=O)c1cnccn1)B(O)O [Bortezomib] (first compound 0.4 µM, partner dose 0.001 µM) | 224% | 523% | 29.4% | 43.7% | 69.2% | 275% | 138% | 472% | 244% | 59.9% | 64.5% | 52.2% | 245% | 599% | 90.2% | 65.5% | 153% | 129% | 77.3%
8 | CS(=O)(=O)c1ccc(C(=O)Nc2ccc(Cl)c(-c3ccccn3)c2)c(Cl)c1 [vismodegib] + CS(=O)(=O)CCNCc1ccc(-c2ccc3ncnc(Nc4ccc(OCc5cccc(F)c5)c(Cl)c4)c3c2)o1 [lapatinib] (first compound 1 µM, partner dose 0.8 µM) | 99.3% | 90.3% | 156% | 145% | 136% | 275% | 115% | 49.9% | 114% | 63.5% | 41.3% | 102% | 116% | 139% | 115% | 42.6% | 118% | 106% | 43.4%
9 | CS(=O)(=O)c1ccc(C(=O)Nc2ccc(Cl)c(-c3ccccn3)c2)c(Cl)c1 [vismodegib] + C[C@]1(c2nc3c(C(N)=O)cccc3[nH]2)CCCN1 [Veliparib] (first compound 1 µM, partner dose 1.4 µM) | 84.2% | 160% | 63.9% | 59.1% | 79.7% | 42.5% | 97.4% | 111% | 91% | 30.1% | 91.8% | 114% | 98.7% | 114% | 208% | 61.8% | 61.6% | 57.4% | 81.5%
10 | CC1(C)CCC(c2ccc(Cl)cc2)=C(CN2CCN(c3ccc(C(=O)NS(=O)(=O)c4ccc(N[C@H](CCN5CCOCC5)CSc5ccccc5)c(S(=O)(=O)C(F)(F)F)c4)cc3)CC2)C1 + C=C(c1ccc(C(=O)O)cc1)c1cc2c(cc1C)C(C)(C)CCC2(C)C [Bexarotene] (first compound 0.4 µM, partner dose 2 µM) | 170% | 292% | 50.4% | 555% | 132% | 999% | 1140% | 754% | 450% | 180% | 226% | 134% | 166% | 95.9% | 114% | 184% | 361% | 295% | 118%
11 | C[C@@H](N)c1ccc(C(=O)Nc2ccnc3[nH]ccc23)cc1 + Cn1c(Nc2ccc(C(F)(F)F)cc2)nc2cc(Oc3ccnc(-c4ncc(C(F)(F)F)[nH]4)c3)ccc21 [CHIR265] (first compound 0.4 µM, partner dose 0.08 µM) | 1790% | 278% | 102% | 232% | 51.1% | 101% | 267% | 138% | 116% | 71.2% | 259% | 112% | 136% | 174% | 97.7% | 71.6% | 63.6% | 130% | 75.8%
12 | CC(=O)O[C@@]12CO[C@@H]1C[C@H](O)[C@@]1(C)C(=O)[C@H](O)C3=C(C)[C@@H](OC(=O)[C@H](O)[C@@H](NC(=O)OC(C)(C)C)c4ccccc4)C[C@@](O)([C@@H](OC(=O)c4ccccc4)[C@H]21)C3(C)C [Docetaxel] + Clc1ccc(Nc2nnc(Cc3ccncc3)c3ccccc23)cc1 [vatalanib] (first compound 0.0001 µM, partner dose 2 µM) | 146% | 113% | 2130% | 1420% | 90.3% | 402% | 198% | 63.5% | 241% | 151% | 746% | 313% | 186% | 662% | 370% | 196% | 306% | 143% | 248%
13 | CCN(CC)CCNC(=O)c1c(C)[nH]c(/C=C2\C(=O)Nc3ccc(F)cc32)c1C [sunitinib] + CC(=O)c1c(C)c2cnc(Nc3ccc(N4CCNCC4)cn3)nc2n(C2CCCC2)c1=O [palbociclib] (first compound 0.4 µM, partner dose 0.04 µM) | 204% | 105% | 147% | 248% | 107% | 38.7% | 107% | 74% | 189% | 35.4% | 52.9% | 46.9% | 44.4% | 46% | 205% | 133% | 30.3% | 55.4% | 213%
14 | C[C@@H](N)c1ccc(C(=O)Nc2ccnc3[nH]ccc23)cc1 + CO[C@H]1C[C@@H]2CC[C@@H](C)[C@@](O)(O2)C(=O)C(=O)N2CCCC[C@H]2C(=O)O[C@H]([C@H](C)C[C@@H]2CC[C@@H](OCCO)[C@H](OC)C2)CC(=O)[C@H](C)/C=C(\C)[C@@H](O)[C@@H](OC)C(=O)[C@H](C)C[C@H](C)/C=C/C=C/C=C/1C [everolimus] (first compound 0.4 µM, partner dose 0.02 µM) | 467% | 138% | 124% | 914% | 78.7% | 95.5% | 136% | 138% | 179% | 75.7% | 330% | 119% | 180% | 308% | 115% | 106% | 245% | 193% | 179%
15 | CCCCCCCCc1ccc(CCC(N)(CO)CO)cc1 [fingolimod] + Cc1cc(Nc2cc(N3CCN(C)CC3)nc(/C=C/c3ccccc3)n2)n[nH]1 [ENMD2076] (first compound 2 µM, partner dose 0.04 µM) | 139% | 92.1% | 111% | 210% | 64.8% | 68.4% | 114% | 91.7% | 154% | 25.4% | 76% | 163% | 102% | 103% | 61.6% | 121% | 192% | 47% | 110%
16 | Cn1cnc2c(F)c(Nc3ccc(Br)cc3Cl)c(C(=O)NOCCO)cc21 [selumetinib] + CCN(CC)CCNC(=O)c1c(C)[nH]c(/C=C2\C(=O)Nc3ccc(F)cc32)c1C [sunitinib] (first compound 0.015 µM, partner dose 0.4 µM) | 649% | 122% | 51.7% | 134% | 105% | 134% | 94.3% | 231% | 96% | 198% | 110% | 106% | 50% | 186% | 37.7% | 36.9% | 209% | 61.8% | 94.2%

3 consecutive entries out of the list so far, for reference:
Row | SMILES | cleaved PARP positive nuclei fraction (501Mel) | cleaved PARP positive nuclei fraction (A101D) | cleaved PARP positive nuclei fraction (A2058) | cleaved PARP positive nuclei fraction (A375) | cleaved PARP positive nuclei fraction (C32) | cleaved PARP positive nuclei fraction (CBRC008) | cleaved PARP positive nuclei fraction (CBRC014) | cleaved PARP positive nuclei fraction (CBRC016) | cleaved PARP positive nuclei fraction (CBRC017) | cleaved PARP positive nuclei fraction (CBRC034) | cleaved PARP positive nuclei fraction (COLO792) | cleaved PARP positive nuclei fraction (COLO800) | cleaved PARP positive nuclei fraction (COLO829) | cleaved PARP positive nuclei fraction (G361) | cleaved PARP positive nuclei fraction (IPC-298) | cleaved PARP positive nuclei fraction (IST-MEL1) | cleaved PARP positive nuclei fraction (LB2518-MEL) | cleaved PARP positive nuclei fraction (LOXIMVI) | cleaved PARP positive nuclei fraction (MEL-HO)
3 | CC1(C)CCC(c2ccc(Cl)cc2)=C(CN2CCN(c3ccc(C(=O)NS(=O)(=O)c4ccc(N[C@H](CCN5CCOCC5)CSc5ccccc5)c(S(=O)(=O)C(F)(F)F)c4)cc3)CC2)C1 + CNC(=O)c1cc(Oc2ccc(NC(=O)Nc3ccc(Cl)c(C(F)(F)F)c3)cc2)ccn1 [sorafenib] (first compound 0.4 µM, partner dose 0.4 µM) | 72.8% | 93.7% | 151% | 195% | 1830% | 365% | 691% | 336% | 357% | 158% | 180% | 23.7% | 71.9% | 164% | 352% | 58.6% | 119% | 108% | 87.8%
4 | CC1(C)CCC(c2ccc(Cl)cc2)=C(CN2CCN(c3ccc(C(=O)NS(=O)(=O)c4ccc(N[C@H](CCN5CCOCC5)CSc5ccccc5)c(S(=O)(=O)C(F)(F)F)c4)cc3)CC2)C1 + O=C(O)c1ccc2c(c1)nc(Nc1cccc(Cl)c1)c1ccncc12 [CX4945] (first compound 0.4 µM, partner dose 0.4 µM) | 162% | 466% | 360% | 281% | 190% | 339% | 1600% | 1500% | 476% | 547% | 381% | 58.1% | 221% | 283% | 62.5% | 155% | 423% | 322% | 241%
5 | CC(=O)O[C@@]12CO[C@@H]1C[C@H](O)[C@@]1(C)C(=O)[C@H](O)C3=C(C)[C@@H](OC(=O)[C@H](O)[C@@H](NC(=O)OC(C)(C)C)c4ccccc4)C[C@@](O)([C@@H](OC(=O)c4ccccc4)[C@H]21)C3(C)C [Docetaxel] + CC(=O)c1c(C)c2cnc(Nc3ccc(N4CCNCC4)cn3)nc2n(C2CCCC2)c1=O [palbociclib] (first compound 0.0001 µM, partner dose 0.04 µM) | 187% | 126% | 2130% | 1060% | 201% | 257% | 161% | 119% | 416% | 143% | 241% | 275% | 166% | 219% | 437% | 284% | 484% | 86.4% | 182%
